According to the supplement of paper PMC12823440, “Inhibitors supercharge kinase turnover through native proteolytic circuits” (Nature, 2025):
Some of the results follow. The calls rarely recur for the same compound in another form.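 In K562 cells expressing nanoluciferase-fused kinases, luminescence was recorded at 4 h intervals between 2 and 18 h, normalized as percent of control with DMSO at 100% and a positive control at 0%. A significant (2 sigma) signal drop marks a time point as decreased. The authors' rule for a hit is not shown and takes in more than the number of time points.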

Amino acid sequences for entries named in this document (tags omitted). A change or cut given only in a name is not applied to a line headed by its entry.
UniProt Q9Y616: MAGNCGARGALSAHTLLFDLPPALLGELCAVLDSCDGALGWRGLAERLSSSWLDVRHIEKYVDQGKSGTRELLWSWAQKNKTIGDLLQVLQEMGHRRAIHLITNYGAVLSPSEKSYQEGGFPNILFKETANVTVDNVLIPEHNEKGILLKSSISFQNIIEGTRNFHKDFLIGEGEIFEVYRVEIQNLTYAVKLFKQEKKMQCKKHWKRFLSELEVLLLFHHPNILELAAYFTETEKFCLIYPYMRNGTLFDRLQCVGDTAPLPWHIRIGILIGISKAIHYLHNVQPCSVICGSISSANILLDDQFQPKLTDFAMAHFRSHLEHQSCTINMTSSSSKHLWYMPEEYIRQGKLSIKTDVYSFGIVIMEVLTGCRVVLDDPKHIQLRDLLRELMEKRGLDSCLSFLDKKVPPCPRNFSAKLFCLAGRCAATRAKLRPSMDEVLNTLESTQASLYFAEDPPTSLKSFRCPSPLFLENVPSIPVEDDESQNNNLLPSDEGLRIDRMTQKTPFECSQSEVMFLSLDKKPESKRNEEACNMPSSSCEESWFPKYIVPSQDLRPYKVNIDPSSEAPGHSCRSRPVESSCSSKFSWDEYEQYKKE
UniProt P23458: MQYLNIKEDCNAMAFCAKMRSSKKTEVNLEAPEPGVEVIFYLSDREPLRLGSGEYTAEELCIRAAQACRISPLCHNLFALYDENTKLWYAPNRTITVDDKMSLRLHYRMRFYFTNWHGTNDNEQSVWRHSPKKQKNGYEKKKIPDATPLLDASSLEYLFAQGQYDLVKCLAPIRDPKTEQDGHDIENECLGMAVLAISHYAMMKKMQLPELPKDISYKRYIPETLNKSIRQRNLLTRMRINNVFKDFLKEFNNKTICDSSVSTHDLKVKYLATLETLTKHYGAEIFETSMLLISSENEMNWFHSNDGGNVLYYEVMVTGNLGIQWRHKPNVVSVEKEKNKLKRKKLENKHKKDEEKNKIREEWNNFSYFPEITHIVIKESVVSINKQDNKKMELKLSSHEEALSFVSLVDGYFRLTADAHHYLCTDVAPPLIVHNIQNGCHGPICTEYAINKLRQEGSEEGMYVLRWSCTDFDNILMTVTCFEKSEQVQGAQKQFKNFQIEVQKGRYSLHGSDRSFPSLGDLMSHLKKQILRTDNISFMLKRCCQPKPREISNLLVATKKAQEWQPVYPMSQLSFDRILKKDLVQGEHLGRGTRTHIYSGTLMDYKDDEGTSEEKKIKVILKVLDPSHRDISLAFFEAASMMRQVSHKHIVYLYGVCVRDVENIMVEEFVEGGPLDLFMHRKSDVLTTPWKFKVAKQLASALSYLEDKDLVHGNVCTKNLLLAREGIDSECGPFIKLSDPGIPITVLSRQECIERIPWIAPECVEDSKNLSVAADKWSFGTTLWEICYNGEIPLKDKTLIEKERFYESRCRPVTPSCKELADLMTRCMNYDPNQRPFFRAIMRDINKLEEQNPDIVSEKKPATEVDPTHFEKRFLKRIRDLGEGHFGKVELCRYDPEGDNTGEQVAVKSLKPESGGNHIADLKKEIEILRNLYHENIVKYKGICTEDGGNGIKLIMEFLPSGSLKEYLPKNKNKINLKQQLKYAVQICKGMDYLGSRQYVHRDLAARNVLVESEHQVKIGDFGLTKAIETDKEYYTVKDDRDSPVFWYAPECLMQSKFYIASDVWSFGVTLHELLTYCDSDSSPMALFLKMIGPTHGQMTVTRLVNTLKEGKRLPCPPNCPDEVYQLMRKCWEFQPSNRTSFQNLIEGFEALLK
UniProt P06239: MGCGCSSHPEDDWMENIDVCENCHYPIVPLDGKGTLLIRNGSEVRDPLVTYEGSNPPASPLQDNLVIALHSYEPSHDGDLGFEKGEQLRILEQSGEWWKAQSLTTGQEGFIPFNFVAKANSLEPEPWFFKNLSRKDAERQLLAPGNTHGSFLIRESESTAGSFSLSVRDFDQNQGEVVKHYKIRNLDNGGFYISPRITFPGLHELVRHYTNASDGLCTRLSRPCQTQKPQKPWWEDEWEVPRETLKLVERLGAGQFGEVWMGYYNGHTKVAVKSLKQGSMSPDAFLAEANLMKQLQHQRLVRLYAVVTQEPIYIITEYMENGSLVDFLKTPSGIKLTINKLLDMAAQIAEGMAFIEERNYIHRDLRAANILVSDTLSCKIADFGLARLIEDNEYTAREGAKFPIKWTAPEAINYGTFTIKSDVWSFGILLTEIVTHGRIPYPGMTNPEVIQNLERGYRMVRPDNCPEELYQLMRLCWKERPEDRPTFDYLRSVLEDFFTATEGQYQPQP
UniProt P53667: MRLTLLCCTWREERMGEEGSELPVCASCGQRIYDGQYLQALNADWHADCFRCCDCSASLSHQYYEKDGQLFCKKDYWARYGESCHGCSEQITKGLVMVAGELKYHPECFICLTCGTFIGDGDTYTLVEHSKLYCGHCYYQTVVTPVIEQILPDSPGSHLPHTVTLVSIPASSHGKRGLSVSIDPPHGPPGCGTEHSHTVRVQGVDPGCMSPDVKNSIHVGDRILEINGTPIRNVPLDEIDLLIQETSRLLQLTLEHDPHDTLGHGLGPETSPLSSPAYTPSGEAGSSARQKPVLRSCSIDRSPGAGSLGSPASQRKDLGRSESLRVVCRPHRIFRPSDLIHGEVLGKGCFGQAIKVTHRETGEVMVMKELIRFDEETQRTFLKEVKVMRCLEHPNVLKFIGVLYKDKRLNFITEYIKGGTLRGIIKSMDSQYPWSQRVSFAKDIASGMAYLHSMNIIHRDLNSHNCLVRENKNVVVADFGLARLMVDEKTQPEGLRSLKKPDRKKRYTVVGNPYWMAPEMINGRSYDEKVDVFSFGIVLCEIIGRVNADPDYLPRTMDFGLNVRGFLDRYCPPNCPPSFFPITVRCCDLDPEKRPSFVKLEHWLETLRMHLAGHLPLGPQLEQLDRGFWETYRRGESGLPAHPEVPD
UniProt P53671: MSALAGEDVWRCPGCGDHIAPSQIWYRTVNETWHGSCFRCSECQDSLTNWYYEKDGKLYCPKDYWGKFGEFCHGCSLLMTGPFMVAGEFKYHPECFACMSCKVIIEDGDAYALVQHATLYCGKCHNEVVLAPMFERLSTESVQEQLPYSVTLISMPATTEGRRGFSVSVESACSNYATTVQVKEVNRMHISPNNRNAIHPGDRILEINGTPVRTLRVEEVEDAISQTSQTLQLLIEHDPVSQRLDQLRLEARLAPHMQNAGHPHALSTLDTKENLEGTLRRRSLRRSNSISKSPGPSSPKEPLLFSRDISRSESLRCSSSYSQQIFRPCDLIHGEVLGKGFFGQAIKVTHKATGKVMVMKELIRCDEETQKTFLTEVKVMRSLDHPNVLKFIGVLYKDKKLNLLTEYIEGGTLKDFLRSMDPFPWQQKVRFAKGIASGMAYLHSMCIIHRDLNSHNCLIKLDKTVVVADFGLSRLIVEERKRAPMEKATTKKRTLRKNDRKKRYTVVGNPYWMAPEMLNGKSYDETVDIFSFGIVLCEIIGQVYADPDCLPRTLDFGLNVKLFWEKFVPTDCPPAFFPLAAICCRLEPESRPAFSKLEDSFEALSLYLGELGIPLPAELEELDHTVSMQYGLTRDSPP
UniProt Q8IWU2: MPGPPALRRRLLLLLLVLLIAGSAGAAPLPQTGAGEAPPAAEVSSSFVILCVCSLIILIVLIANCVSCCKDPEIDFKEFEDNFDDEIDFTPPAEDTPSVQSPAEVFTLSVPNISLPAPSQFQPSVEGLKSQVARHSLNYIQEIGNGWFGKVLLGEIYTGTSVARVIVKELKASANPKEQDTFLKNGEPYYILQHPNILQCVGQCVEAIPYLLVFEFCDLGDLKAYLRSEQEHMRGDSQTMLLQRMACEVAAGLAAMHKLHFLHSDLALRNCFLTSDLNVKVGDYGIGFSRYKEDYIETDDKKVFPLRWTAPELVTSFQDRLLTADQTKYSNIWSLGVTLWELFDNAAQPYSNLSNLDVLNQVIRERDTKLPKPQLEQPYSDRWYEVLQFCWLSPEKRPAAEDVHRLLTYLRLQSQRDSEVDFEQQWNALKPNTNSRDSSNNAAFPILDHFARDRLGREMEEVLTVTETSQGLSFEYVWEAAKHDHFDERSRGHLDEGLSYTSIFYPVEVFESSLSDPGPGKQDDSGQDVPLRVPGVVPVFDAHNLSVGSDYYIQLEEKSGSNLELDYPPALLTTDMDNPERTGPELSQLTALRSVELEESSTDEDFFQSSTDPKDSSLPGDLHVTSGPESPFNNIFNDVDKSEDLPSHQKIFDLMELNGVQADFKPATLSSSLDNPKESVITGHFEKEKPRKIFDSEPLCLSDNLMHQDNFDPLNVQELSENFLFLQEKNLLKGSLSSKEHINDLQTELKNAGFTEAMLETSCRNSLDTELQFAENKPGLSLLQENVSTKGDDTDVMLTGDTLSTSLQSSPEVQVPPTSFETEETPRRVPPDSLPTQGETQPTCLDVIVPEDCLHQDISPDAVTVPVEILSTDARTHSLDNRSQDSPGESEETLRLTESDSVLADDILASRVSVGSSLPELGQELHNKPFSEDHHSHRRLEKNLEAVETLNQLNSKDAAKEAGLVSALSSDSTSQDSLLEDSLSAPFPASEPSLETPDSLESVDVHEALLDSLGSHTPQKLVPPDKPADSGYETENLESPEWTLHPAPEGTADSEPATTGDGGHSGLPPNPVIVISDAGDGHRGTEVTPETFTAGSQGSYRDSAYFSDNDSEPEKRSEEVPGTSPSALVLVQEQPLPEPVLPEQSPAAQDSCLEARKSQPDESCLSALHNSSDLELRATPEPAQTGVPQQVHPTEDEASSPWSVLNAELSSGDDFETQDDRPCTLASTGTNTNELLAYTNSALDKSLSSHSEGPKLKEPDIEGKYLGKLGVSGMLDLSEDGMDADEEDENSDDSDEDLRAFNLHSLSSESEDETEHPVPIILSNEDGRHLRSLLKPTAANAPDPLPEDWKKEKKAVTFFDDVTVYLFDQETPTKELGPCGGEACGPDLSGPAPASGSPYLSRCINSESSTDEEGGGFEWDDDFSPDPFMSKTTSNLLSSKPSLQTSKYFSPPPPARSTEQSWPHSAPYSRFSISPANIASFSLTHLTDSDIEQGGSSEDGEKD
UniProt P07948: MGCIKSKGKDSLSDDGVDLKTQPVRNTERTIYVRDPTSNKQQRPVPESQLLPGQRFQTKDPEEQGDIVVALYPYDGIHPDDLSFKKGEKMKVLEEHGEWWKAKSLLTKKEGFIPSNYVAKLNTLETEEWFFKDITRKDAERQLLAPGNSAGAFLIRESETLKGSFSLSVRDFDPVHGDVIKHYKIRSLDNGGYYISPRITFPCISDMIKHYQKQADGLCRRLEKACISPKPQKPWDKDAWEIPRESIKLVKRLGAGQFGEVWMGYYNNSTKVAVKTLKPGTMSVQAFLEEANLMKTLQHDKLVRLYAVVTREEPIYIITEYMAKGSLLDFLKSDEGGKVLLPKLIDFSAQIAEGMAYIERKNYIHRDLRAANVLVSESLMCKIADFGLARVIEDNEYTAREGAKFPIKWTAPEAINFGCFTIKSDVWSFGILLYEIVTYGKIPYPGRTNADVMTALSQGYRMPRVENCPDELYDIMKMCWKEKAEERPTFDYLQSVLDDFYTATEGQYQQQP
UniProt Q12851: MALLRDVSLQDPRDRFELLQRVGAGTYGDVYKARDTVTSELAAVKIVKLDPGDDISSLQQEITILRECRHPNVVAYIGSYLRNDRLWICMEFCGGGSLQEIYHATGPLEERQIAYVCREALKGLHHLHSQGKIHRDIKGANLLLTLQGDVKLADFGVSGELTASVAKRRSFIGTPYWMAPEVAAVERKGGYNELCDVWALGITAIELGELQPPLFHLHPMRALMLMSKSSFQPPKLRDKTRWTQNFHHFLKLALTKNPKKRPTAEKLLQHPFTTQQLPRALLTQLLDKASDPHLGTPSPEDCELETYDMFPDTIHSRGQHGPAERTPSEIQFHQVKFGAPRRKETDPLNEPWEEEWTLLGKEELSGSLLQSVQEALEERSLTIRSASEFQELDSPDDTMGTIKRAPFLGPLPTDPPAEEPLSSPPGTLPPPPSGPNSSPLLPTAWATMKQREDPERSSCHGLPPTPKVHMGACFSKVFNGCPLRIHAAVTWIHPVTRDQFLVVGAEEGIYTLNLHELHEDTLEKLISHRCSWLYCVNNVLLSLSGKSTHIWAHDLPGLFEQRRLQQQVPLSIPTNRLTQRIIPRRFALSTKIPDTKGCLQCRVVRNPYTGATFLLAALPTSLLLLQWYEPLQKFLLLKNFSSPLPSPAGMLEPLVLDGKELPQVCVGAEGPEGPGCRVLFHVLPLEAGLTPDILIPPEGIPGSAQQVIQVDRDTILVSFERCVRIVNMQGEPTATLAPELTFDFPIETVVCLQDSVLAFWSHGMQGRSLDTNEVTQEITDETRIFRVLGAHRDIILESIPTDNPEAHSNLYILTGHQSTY

Columns and labels:
Assay in all cases: kinase-Nluc reporter destabilization hit call (1 = scored as downregulated) (binary); higher = compound decreases kinase abundance
Details in all cases: K562; 2-18 h
IRAK3 = IRAK3 (UniProt Q9Y616)
JAK1 = JAK1 (UniProt P23458)
LCK = LCK (UniProt P06239)
LIMK1 = LIMK1 (UniProt P53667)
LIMK2 = LIMK2 (UniProt P53671)
LMTK2 = LMTK2 (UniProt Q8IWU2)
LYN = LYN (UniProt P07948)
MAP2K1 = MAP2K1 (UniProt Q02750)
MAP2K2 = MAP2K2 (UniProt P36507)
MAP4K2 = MAP4K2 (UniProt Q12851)

Measured: kinase-Nluc reporter destabilization hit call

Nc1cccc(S(=O)(=O)N2CCCN(S(=O)(=O)c3ccc4c(c3)OCCO4)CC2)c1 (10 µM)
inactive: IRAK3 = 0 | JAK1 = 0 | LCK 0 | LIMK1 = 0 | LIMK2 = 0 | LMTK2 = 0 | LYN 0 | MAP2K1 = 0 | MAP2K2 = 0 | MAP4K2 = 0

Cc1cc(Nc2nc(N[C@@H](C)c3ncc(F)cn3)ncc2Cl)[nH]n1 (10 µM)
inactive: IRAK3 = 0 | JAK1 = 0 | LCK 0 | LIMK1 = 0 | LIMK2 = 0 | LMTK2 = 0 | LYN 0 | MAP2K1 = 0 | MAP2K2 = 0 | MAP4K2 = 0

O=C(CCCCCn1cc(Nc2ncc(Cl)c(Nc3ccc(Cl)cc3)n2)cn1)NO (2.5 µM)
inactive: IRAK3 = 0 | JAK1 = 0 | LCK 0 | LIMK1 = 0 | LIMK2 = 0 | LMTK2 = 0 | LYN 0 | MAP2K1 = 0 | MAP2K2 = 0 | MAP4K2 = 0
